This passage reports binding results from PMC10893636, “Synergistic enhancement of the mouse Pramex1 and Pramel1 in repressing retinoic acid (RA) signaling during gametogenesis” (Cell & Bioscience, 2024).

The chains behind the UniProt entries cited, without tags or fusion partners.
UniProt Q9Z2C8: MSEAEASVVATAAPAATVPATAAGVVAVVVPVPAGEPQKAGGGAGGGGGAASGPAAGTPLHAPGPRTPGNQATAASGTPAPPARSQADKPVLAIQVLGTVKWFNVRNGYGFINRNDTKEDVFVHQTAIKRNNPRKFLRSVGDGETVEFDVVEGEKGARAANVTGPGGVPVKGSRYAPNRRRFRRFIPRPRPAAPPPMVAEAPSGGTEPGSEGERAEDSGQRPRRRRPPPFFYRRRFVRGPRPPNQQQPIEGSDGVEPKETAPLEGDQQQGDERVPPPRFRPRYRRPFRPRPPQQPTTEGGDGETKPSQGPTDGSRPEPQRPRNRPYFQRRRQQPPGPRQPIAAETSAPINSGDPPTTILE

Results are given in words; binding and its absence hold for the method and conditions named. In cells and extracts the contact can be indirect.

For this assay, the target named is T1, Retinoic acid receptor alpha (RARα) (mouse (endogenous in testis)) (UniProt P11416).
T1 sequence: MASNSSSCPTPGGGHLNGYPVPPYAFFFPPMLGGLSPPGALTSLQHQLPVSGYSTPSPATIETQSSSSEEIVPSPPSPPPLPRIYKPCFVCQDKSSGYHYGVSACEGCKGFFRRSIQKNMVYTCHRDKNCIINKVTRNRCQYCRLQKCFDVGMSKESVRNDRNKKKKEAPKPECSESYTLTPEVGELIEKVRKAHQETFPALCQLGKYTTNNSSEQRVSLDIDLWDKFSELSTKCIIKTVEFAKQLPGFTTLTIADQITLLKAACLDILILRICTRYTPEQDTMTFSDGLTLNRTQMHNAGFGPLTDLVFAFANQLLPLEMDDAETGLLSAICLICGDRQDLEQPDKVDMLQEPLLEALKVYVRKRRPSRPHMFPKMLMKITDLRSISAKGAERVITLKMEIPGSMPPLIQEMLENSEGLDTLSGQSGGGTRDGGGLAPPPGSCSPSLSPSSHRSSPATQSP
The experiment in a line: co-IP; anti-PRAMEX1 or anti-RARα antibody immobilised on protein A/G magnetic beads (Pierce Crosslink Magnetic IP/co-IP Kit); P7 testis proteins of WT, Pramex1 sKO and Pramel1 sKO mice, overnight at 4 °C; Western blot, band intensity relative to input (set as 1), n = 3.

With “Y-Box Binding Protein 2 (YBX2) (from UniProt Q9Z2C8 1-360)”, the binding entry was “no binding”.
